Record: PubChem BioAssay AID1224828 (NIAID, 2016)
Purpose: 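Find genes required for NF-kappaB p65 moving into the nucleus after LPS in mouse macrophages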 (primary screen). Cells: mouse RAW264.7 G9 macrophage reporter cells (GFP-p65, Tnf promoter-mCherry). Knock-down reagent: siRNA pool against mouse genes, 100 nM. Timing: 2 days siRNA transfection, then 40 min LPS before fixation. Treatment: LPS (Salmonella minnesota R595) at 10 ng/ml. Measurement: 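Imaged p65 nuclear translocation ratio, normalised to the plate median, converted to robust z-scores and averaged across two replicates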. Reading the numbers: p65 translocation robust z-score: higher = more nuclear NF-kappaB p65 after LPS than the plate median; nuclear/cytoplasmic p65 ratio: higher = more nuclear NF-kappaB p65. Call rule: 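Called active when z exceeds 3.3 or falls under -1.56 (median of Tlr4 controls), giving activity score of at least 50; no calls for control wells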. Meaning of the calls: active = hit (p65 shift raised or lowered); inactive = no clear change.
In all, the deposit lists about 17,000 reagents; this is a part drawn at random. Over the whole deposit, 762 (4.5%) were called active. 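Active calls include both raised and lowered p65 entry, mostly lowered; wells with fewer than 50 cells lack a z-score.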 Raw values are not corrected between plates.

gene	p65 translocation robust z-score	nuclear/cytoplasmic p65 ratio, rep 1	nuclear/cytoplasmic p65 ratio, rep 2	low cell count flag	Call
Pcdhga8	0	1.38	1.29	enough cells to score	inactive
Mdn1	0.91	1.47	1.68	enough cells to score	inactive
Usp6nl	-0.11	1.57	1.69	enough cells to score	inactive
1700012A03Rik		1.6	1.34	fewer than 50 cells per well; well left out of scoring	inactive
Izumo1r	0.15	1.63	1.47	enough cells to score	inactive
Ccnl2	-0.43	1.59	1.65	enough cells to score	inactive
Glis3		1.35	1.66	fewer than 50 cells per well; well left out of scoring	inactive
Mrpl37	-0.59	1.57	1.5	enough cells to score	inactive
Clasp2	0.5	1.47	1.44	enough cells to score	inactive
Pipox	-0.4	1.32	1.18	enough cells to score	inactive
Stfa1	-0.9	1.3	1.23	enough cells to score	inactive
Rspo1		0	1.13	fewer than 50 cells per well; well left out of scoring	inactive

Copied from the list:
Under “nuclear/cytoplasmic p65 ratio, rep 1”, Glis3 shows 1.35
For “nuclear/cytoplasmic p65 ratio, rep 2”, 1700012A03Rik reads 1.34

The list goes on.
gene	p65 translocation robust z-score	nuclear/cytoplasmic p65 ratio, rep 1	nuclear/cytoplasmic p65 ratio, rep 2	low cell count flag	Call
Adk	0.25	1.71	1.42	enough cells to score	inactive
Mmd	1.4	2.06	1.76	enough cells to score	inactive
Stau1	0.69	1.51	1.27	enough cells to score	inactive
Slco4c1		1.29	1.48	fewer than 50 cells per well; well left out of scoring	inactive
Rpl3l	0.8	1.53	1.06	enough cells to score	inactive
Vmn1r41	-0.8	1.26	1.16	enough cells to score	inactive
Mex3d	-0.98	1.24	1.15	enough cells to score	inactive
Nxf2	-1.95	1.46	1.2	enough cells to score	active
Or2y1e	-1.31	1.56	1.12	enough cells to score	inactive
Aadacl4fm1	-0.95	1.3	1.41	enough cells to score	inactive
Lhfpl4	-1.24	1.34	1.41	enough cells to score	inactive
Yipf7		1.12	1.44	fewer than 50 cells per well; well left out of scoring	inactive
